Measured values published in paper PMC4005645, “Molecular basis for the wide range of affinity found in Csr/Rsm protein–RNA recognition”.
For at least one entry, the source does not settle the construct or the ends of the probe. For part of these data: The comparison behind a weaker result is the experiment's own reference, which may not be listed here. For part of these data: At least one verdict was read from the data and is not stated in words by the source. Tags and fusion partners may be left off the protein sequences shown.

Legend:
[1] = molecular target: T1, RsmE (Pseudomonas fluorescens CHA0) (UniProt P0DPC3); test: ITC; details: ITC: 300 mM NaCl, 50 mM potassium phosphate pH 8.0, 298 K, recombinant protein, protein details: C-terminal His tag
T1 sequence (looked up, limits assumed): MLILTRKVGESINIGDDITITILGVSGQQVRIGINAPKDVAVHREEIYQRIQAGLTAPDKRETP

[2] = molecular target: T1, RsmE (Pseudomonas fluorescens CHA0); test: NMR; details: 313 K, slow exchange, 300 uM and 2.7 mM reported for the two motifs, assignment only in figure; NMR: 30 mM NaCl, 50 mM potassium phosphate pH 7.2, 313 K; recombinant protein; protein details: C-terminal His tag
[3] = molecular target: T1, RsmE (Pseudomonas fluorescens CHA0); test: NMR structure; details: slow exchange; NMR: 30 mM NaCl, 50 mM potassium phosphate pH 7.2, 313 K; recombinant protein; protein details: C-terminal His tag
[4] = one-site fit, range, exact value in figure

GAGAAAGGAACACAGAGACUAGG [23nt-GGA76-78]
binding result ([1]; no stem, value in figure): binds more weakly

GAGACCGGGACGUUGCCCGGUCUC [hcnA-GGA#2]
binding result [2]: binds more weakly

GAGCAUAGACGGCGGGACGCCGGGUA [hcnA-GGA#4]
binding result ([1]; intermediate-low affinity, value in figure): binds more weakly

GAGGGACCGGGUCGUUGCCCGGUCCC [hcnA-GGA#1]
binding result [2]: binds more weakly

GGGAUCGCAGGAAGCGAUCCC [RsmZ SL3]
binding result [1, 4]: binds

GGGUCAUCAGGACGAUGACCC [RsmZ SL4]
binding result [1, 4]: binds

GGGUGUCGACGGAUAGACACCC [RsmZ SL1]
binding result ([1]; one-site fit, range stated for SL1, SL3, SL4 and 9nt RNA, exact value in figure): binds

UCAGGACAU [9nt-GGA39-41]
binding result [1, 4]: binds
binding result [3]: binds
